From paper PMC9146371
Results are given in words; binding and its absence hold for the method and conditions named. In cells and extracts the contact can be indirect. Some results given as binding are weak or reduced against the parent protein; the word gives no strength. Tags and fused reporters may be left off the sequences shown.

Target: T1, GFP-PRPF6 (UniProt O94906)
T1 sequence: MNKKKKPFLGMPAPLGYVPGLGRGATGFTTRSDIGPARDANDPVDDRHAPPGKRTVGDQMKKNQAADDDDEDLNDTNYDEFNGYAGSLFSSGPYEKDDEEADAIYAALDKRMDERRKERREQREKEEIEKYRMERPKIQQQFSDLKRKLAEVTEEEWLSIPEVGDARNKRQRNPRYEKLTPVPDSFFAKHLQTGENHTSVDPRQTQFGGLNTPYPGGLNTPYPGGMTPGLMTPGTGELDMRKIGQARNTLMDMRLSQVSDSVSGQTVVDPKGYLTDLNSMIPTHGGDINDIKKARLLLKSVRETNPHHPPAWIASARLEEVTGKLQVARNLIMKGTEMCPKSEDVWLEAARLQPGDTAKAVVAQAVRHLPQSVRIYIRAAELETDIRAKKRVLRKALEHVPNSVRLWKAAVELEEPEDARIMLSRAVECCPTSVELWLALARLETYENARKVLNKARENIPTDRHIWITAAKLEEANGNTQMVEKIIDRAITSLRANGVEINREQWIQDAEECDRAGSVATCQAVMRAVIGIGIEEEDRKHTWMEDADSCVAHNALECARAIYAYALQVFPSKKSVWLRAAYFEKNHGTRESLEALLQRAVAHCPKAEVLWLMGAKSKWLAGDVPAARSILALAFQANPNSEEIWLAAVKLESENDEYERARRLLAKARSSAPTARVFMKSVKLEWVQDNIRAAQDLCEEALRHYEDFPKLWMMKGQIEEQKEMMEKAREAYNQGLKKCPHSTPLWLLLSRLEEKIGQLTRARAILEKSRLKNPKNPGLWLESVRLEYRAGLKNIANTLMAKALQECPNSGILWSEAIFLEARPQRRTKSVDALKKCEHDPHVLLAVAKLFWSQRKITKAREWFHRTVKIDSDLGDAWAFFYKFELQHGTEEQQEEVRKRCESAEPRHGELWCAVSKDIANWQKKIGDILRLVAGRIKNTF
Assay: co-IP; GFP-Trap agarose beads (nanobody); lysates of HEK293T cells co-transfected with GFP-tagged and HA-tagged proteins, 2 h at 4 °C; SDS-PAGE and Western blot

B1: HA-N-VLGR1_CTF (3xHA-tagged VLGR1_CTF) (domain or fragment, UniProt Q8WXG9-1 5891-6306)
chain: SVYAVYARTDNLSSYNEAFFTSGFICISGLCLAVLSHIFCARYSMFAAKLLTHMMAASLGTQILFLASAYASPQLAEESCSAMAAVTHYLYLCQFSWMLIQSVNFWYVLVMNDEHTERRYLLFFLLSWGLPAFVVILLIVILKGIYHQSMSQIYGLIHGDLCFIPNVYAALFTAALVPLTCLVVVFVVFIHAYQVKPQWKAYDDVFRGRTNAAEIPLILYLFALISVTWLWGGLHMAYRHFWMLVLFVIFNSLQGLYVFMVYFILHNQMCCPMKASYTVEMNGHPGPSTAFFTPGSGMPPAGGEISKSTQNLIGAMEEVPPDWERASFQQGSQASPDLKPSPQNGATFPSSGGYGQGSLIADEESQEFDDLIFALKTGAGLSVSDNESGQGSQEGGTLTDSQIVELRRIPIADTHL
How did the binding turn out when B1 was run?
The binding was “binds”.
